Measurements from patent publication US20080051466A1, “Isoalpha acid based protein kinase modulation cancer treatment” (Metaproteomics, LLC, priority 2006, published 2008).
At least one compound was matched to its structure with a doubt left.

System: NF-κB
Test: NF-κB DNA binding (TransAM NF-κB kit), LPS-stimulated RAW 264.7 nuclear extracts
Type: cell-based, murine
Conditions: LPS 4 hr; MgRIAA 55 and 14 μg/ml, parthenolide 80 μM, LY294002 25 μM

For O=c1cc(N2CCOCC2)oc2c(-c3ccccc3)cccc12 [LY294002], the “NF-κB DNA binding” value was “modest decrease of NF-κB binding”.
